Counter-ions that a name gives are not always drawn. ± gives the standard deviation of the averaged measurements. The list shows a part of the results. Most entries show no effect beyond the scatter of the controls. Where a SMILES comes first, the peptide text is derived from it. [ ]: non-standard residue; d: D form.
test system: hPSC-derived cortical neurons (WA09); assay: KCl-induced FOS+/EGR-1+ double-positive nuclei fraction z-score (KCl minus unstimulated); higher = stronger activity-induced IEG response; conditions: 5 µM; treatment: days 7-14 after plating, readout day 21

Row | Structure (SMILES) | KCl-induced FOS+/EGR-1+ double-positive nuclei fraction z-score
1 | CC(=O)O[C@H]1C(=O)[C@@]2(C)[C@H]([C@H](OC(=O)c3ccccc3)[C@]3(O)C[C@H](OC(=O)[C@H](O)[C@@H](NC(=O)c4ccccc4)c4ccccc4)C(C)=C1C3(C)C)[C@]1(OC(C)=O)CO[C@@H]1C[C@@H]2O [Paclitaxel] | -0.00939
2 | CCCNC(=O)c1cn2ncnc(Nc3cc(C(=O)NC4CC4)ccc3C)c2c1C | -0.0322
3 | Cn1ncc(Cl)c1-c1cc(C(=O)N[C@H](CN)Cc2cccc(F)c2)sc1Cl | -0.447
4 | O=S(=O)(N=Cc1c(O)ccc2ccccc12)c1cccs1 | -0.571
5 | CC(=O)O[C@]1(C(C)=O)CC[C@H]2[C@@H]3C[C@H](C)C4=CC(=O)CC[C@]4(C)[C@H]3CC[C@@]21C [Medroxyprogesterone acetate] | 0.149
6 | CN1CC(=O)NC1=N [Creatinine] | 0.666
7 | O=S(=O)(O)c1cc(O)ccc1O [Ethamsylate] | -0.17
8 | Nc1cccc2c1C(=O)N(C1CCC(=O)NC1=O)C2=O (centres undefined) [Pomalidomide] | 0.205
9 | CCCCCCCCCCCCCCCCCCOP(=O)([O-])OC1CC[N+](C)(C)CC1 [Perifosine (KRX-0401)] | 0.824
10 | CC(C)C[C@@H]1NC(=O)[C@@H](C(C)C)NC(=O)[C@@H]2CCCN2C(=O)[C@@H](CC(=O)O)NC(=O)[C@@H](Cc2c[nH]c3ccccc23)NC1=O (cyclo(L[dW][dD]P[dV])) | 0.572
11 | Fc1ccc(Cl)cc1-c1nc(Nc2ccncc2)c2nccnc2n1 | -0.163
12 | CCC[C@H](N[C@H]1CCc2cc(F)cc(F)c2C1)C(=O)Nc1cn(C(C)(C)CNCC(C)(C)C)cn1 | 0.702
13 | Cc1nc(NC(=O)N2CCC[C@H]2C(N)=O)sc1-c1ccnc(C(C)(C)C(F)(F)F)c1 | -0.412
14 | C[N+]1(C)[C@@H]2C[C@@H](OC(=O)C(O)(c3cccs3)c3cccs3)C[C@H]1[C@@H]1O[C@@H]12 [Tiotropium Bromide hydrate] | 0.131
15 | O=C(O)/C=C/c1ccc(Cn2ccnc2)cc1 [Ozagrel] | 1.09
16 | COc1ccccc1OCC(O)COC(N)=O (centres undefined) [Methocarbamol] | 1.8
17 | CN1CCC[C@@H]1Cc1c[nH]c2ccc(CCS(=O)(=O)c3ccccc3)cc12 [Eletriptan HBr] | 1.57
18 | CC[C@H]1OC(=O)[C@H](C)[C@@H](O[C@H]2C[C@@](C)(OC)[C@@H](O)[C@H](C)O2)[C@H](C)[C@@H](O[C@@H]2O[C@H](C)C[C@H](N(C)C)[C@H]2O)[C@](C)(O)C[C@@H](C)CN(C)[C@H](C)[C@@H](O)[C@]1(C)O [Azithromycin] | 0.308 ± 1.1
19 | Cn1cncc1[C@@](N)(c1ccc(Cl)cc1)c1ccc2c(c1)c(-c1cccc(Cl)c1)cc(=O)n2C [Tipifarnib] | -1.5
20 | CCCC(=O)Nc1ccc(OCC(O)CNC(C)C)c(C(C)=O)c1 (centres undefined) [Acebutolol HCl] | -0.179

Retrieved by compound from the list above:
Row | Structure (SMILES) | KCl-induced FOS+/EGR-1+ double-positive nuclei fraction z-score
8 | Nc1cccc2c1C(=O)N(C1CCC(=O)NC1=O)C2=O (centres undefined) [Pomalidomide] | 0.205
13 | Cc1nc(NC(=O)N2CCC[C@H]2C(N)=O)sc1-c1ccnc(C(C)(C)C(F)(F)F)c1 | -0.412

(next part)

Row | Structure (SMILES) | KCl-induced FOS+/EGR-1+ double-positive nuclei fraction z-score
21 | COC(=O)C1=C(C)NC(C)=C(C(=O)OCCN2CCN(C(c3ccccc3)c3ccccc3)CC2)C1c1cccc([N+](=O)[O-])c1 (centres undefined) [Manidipine] | -0.269
22 | COc1cccc(C=NCCN=Cc2cccc(OC)c2[O-])c1[O-].[Cl-].[Mn+3] | -0.0304
23 | CC(C)(O)CNc1ncc(-c2ccnc(Nc3ccnc(Cl)c3)n2)c(CC2CC2)n1 | -1.01
24 | CC(=O)Nc1cccc2c1c(Sc1ccc(Cl)cc1)c(C)n2CC(=O)O | -1.28
25 | O=S(=O)(c1ccccc1)c1cnc2c(N3CCNCC3)cccc2c1 | 0.306
26 | CNC(=O)c1cc(Oc2ccc(NC(=O)Nc3cc(C(C)(C)C)nn3-c3ccc4ncccc4c3)c(F)c2)ccn1 [DCC-2036 (Rebastinib)] | -2.23
27 | CC1(C)[C@@H](OC(=O)CCC(=O)O)CC[C@]2(C)[C@H]3C(=O)C=C4[C@@H]5C[C@@](C)(C(=O)O)CC[C@]5(C)CC[C@@]4(C)[C@]3(C)CC[C@@H]12 [Carbenoxolone Sodium] | 0.57
28 | C[N+](C)(C)NCCC(=O)[O-] [Mildronate] | 0.18
29 | COc1cc(Nc2nc3ccccc3nc2NS(=O)(=O)c2ccc(NC(=O)c3ccc(C)c(OC)c3)cc2)cc(OC)c1 | -0.385
30 | CC1=C(C(=O)Nc2cc3cn[nH]c3cc2F)C(c2ccc(C(F)(F)F)cc2)CC(=O)N1 (centres undefined) | 0.229
31 | C[C@@H](O[C@H]1OCCN(Cc2n[nH]c(=O)[nH]2)[C@H]1c1ccc(F)cc1)c1cc(C(F)(F)F)cc(C(F)(F)F)c1 [Aprepitant] | -0.0145
32 | CN(NC(=O)CC(=O)NN(C)C(=S)c1ccccc1)C(=S)c1ccccc1 [Elesclomol (STA-4783)] | 0.0282
33 | O=C(Cc1cccc(OC(F)(F)F)c1)Nc1ccc(CCCCc2nnc(NC(=O)Cc3ccccn3)s2)nn1 | 0.967
34 | COc1ccc(CC(C)NCC(O)c2ccc(O)c(NC=O)c2)cc1 (centres undefined) [Formoterol Hemifumarate] | -0.389
35 | O=C(C1CCCCC1)N1CC(=O)N2CCc3ccccc3C2C1 (centres undefined) [Praziquantel] | 1.39
36 | COc1ccc(C(=O)NCc2ccc(OCCN(C)C)cc2)cc1OC [Itopride hydrochloride] | 0.422
37 | CN(CCOc1ccc(CC2SC(=O)NC2=O)cc1)c1ccccn1 (centres undefined) [Rosiglitazone] | 0.647
38 | Cc1cc(F)c(C(=O)Nc2cccc(-c3nncn3C(C)C)n2)cc1-n1cnc(C2CC2)c1 [Selonsertib (GS-4997)] | -0.0753
39 | C[N+](C)(CCOc1ccccc1)Cc1ccccc1.O=C([O-])c1cc2ccccc2cc1O [Bephenium Hydroxynaphthoate] | 0.0297

From the supplement of paper PMC11348887
